Experimental data from US20170369807A1, “Ionic Liquid, Lubricant, and Magnetic Recording Medium” (Dexerials Corporation, priority 2016, published 2017).

Experiments:
[1] = Tape durability test (coefficient of friction, still durability, shuttle durability); conditions: for Still durability after heating test / Coefficient of friction after 100 runs after heating test / Shuttle durability after heating: after heating 10 minutes at 100° C.
[2] = Disk durability test (CSS durability test); conditions: 25° C., 60% RH; after heating test 3 minutes at 300° C.

Molecule | Still durability ([1]; 40° C., 30% RH) | Still durability after heating test ([1]; 40° C., 30% RH) | Coefficient of friction after 100 runs ([1]; 40° C., 90% RH) | Shuttle durability ([1]; 40° C., 90% RH) | Coefficient of friction after 100 runs after heating test ([1]; 40° C., 90% RH) | Shuttle durability after heating ([1]; 40° C., 90% RH) | Coefficient of friction after 100 runs ([1]; −5° C.) | Shuttle durability ([1]; −5° C.) | Still durability ([1]; −5° C.) | Coefficient of friction after 100 runs after heating test ([1]; −5° C.) | Shuttle durability after heating ([1]; −5° C.) | Still durability after heating test ([1]; −5° C.) | CSS durability after heating [2]
CCCCCCCCCCCCCCCCCCN.O=S1(=O)NS(=O)(=O)C(F)(F)C(F)(F)C1(F)F [Comp. Ex. 3A, hexafluorocyclopropane-1,3-bis(sulfonyl)imide-octadecyl ammonium] | >60 min | >60 min | 0.24 | >200 times | 0.24 | >200 times | 0.21 | >200 times | >60 min | 0.21 | >200 times | >60 min | –
nonafluorobutanesulfonic acid-octadecyl ammonium [Comp. Ex. 1A] | >60 min | >60 min | 0.23 | >200 times | 0.23 | >200 times | 0.19 | >200 times | >60 min | 0.20 | >200 times | >60 min | >50,000 times
nonafluorobutanesulfonic acid-N-methyloctadecyl ammonium [Comp. Ex. 4A] | – | – | – | – | – | – | – | – | – | – | – | – | >50,000 times
pentadecafluorooctanoic acid octadecyl ammonium [Comp. Ex. 6A] | >60 min | 16 min | 0.25 | >200 times | 0.51 | 23 times | – | >200 times | >60 min | 0.45 | 30 times | 12 min | 891 times
CCCCCCCCCCCCCCCCCCN.O=S(=O)(NS(=O)(=O)C(F)(F)C(F)(F)C(F)(F)C(F)(F)F)C(F)(F)C(F)(F)C(F)(F)C(F)(F)F [Comp. Ex. 2A, bis(nonafluorobutanesulfonyl)imide-octadecyl ammonium] | >60 min | >60 min | 0.22 | >200 times | 0.24 | >200 times | 0.20 | >200 times | >60 min | 0.21 | >200 times | >60 min | –
CCCCCCCCCCCCCCCCCCN(C)C.O=S(=O)(NS(=O)(=O)C(F)(F)C(F)(F)C(F)(F)C(F)(F)F)C(F)(F)C(F)(F)C(F)(F)C(F)(F)F [Ex. 1A, bis(nonafluorobutanesulfonyl)imide-N,N-dimethyl-octadecyl ammonium] | >60 min | >60 min | 0.23 | >200 times | 0.23 | >200 times | 0.21 | >200 times | >60 min | 0.21 | >200 times | >60 min | –
nonafluorobutanesulfonic acid-trimethyloctadecyl ammonium [Comp. Ex. 5A] | – | – | – | – | – | – | – | – | – | – | – | – | >50,000 times
bis(nonafluorobutanesulfonyl)imide-N,N-dimethyl-dodecyl ammonium [Ex. 2A] | – | – | – | – | – | – | – | – | – | – | – | – | >50,000 times
